# Article PMC5996148
# Several values for one entry are separate records, joined by “and”; a condition that tells them apart may be missing. Equal values may be shown once. The list shows a part of the results.
# Experiments:
# Test in all cases: protein microarray (ProtoArray v5.0), streptavidin-Alexa Fluor 647
# Settings in all cases: 3'-biotin; 20 mM Tris (pH 7.5), 5 mM MgCl2, 100 mM KCl, 0.1% Tween-20, A/T-rich and random oligonucleotide blockers; temperature not stated; high values mean tight binding
# MDP-1 (human) = test system: MDP-1 (human)
# ME1 (human) = test system: ME1 (human)
# MED21 (human) = test system: MED21 (human)
# MED24 (human) = test system: MED24 (human)
# MED27 (human) = test system: MED27 (human)
# MED28 (human) = test system: MED28 (human)
# MED30 (human) = test system: MED30 (human)
# MEF2B (human) = test system: MEF2B (human)
# MEIS2 (human) = test system: MEIS2 (human)
# MEIS3 (human) = test system: MEIS3 (human)
sequence,measurement,setting,value
GGGAGGCTGAGGCAGG [G4-1 biotinylated (PQS2)],binding signal,MDP-1 (human),-0.343 z-score and -0.355 z-score
same,binding signal,ME1 (human),-0.326 z-score
same,binding signal,MED21 (human),-0.368 z-score
same,binding signal,MED24 (human),-0.313 z-score
same,binding signal,MED27 (human),-0.253 z-score
same,binding signal,MED28 (human),-0.343 z-score
same,binding signal,MED30 (human),-0.32 z-score
same,binding signal,MEF2B (human),-0.343 z-score
same,binding signal,MEIS2 (human),-0.355 z-score
same,binding signal,MEIS3 (human),-0.346 z-score

# An excerpt of these results, with bars between the fields.
sequence | measurement | setting | value
GGGAGGCTGAGGCAGG [G4-1 biotinylated (PQS2)] | binding signal | MED24 (human) | -0.313 z-score
same | binding signal | MED27 (human) | -0.253 z-score
